# Results from the supplement of paper PMC10849652.
# The chains behind the UniProt entries cited, without tags or fusion partners. Where a name states a change or a piece, a line headed by the entry shows the natural chain unless it says otherwise.
# UniProt Q96NT1: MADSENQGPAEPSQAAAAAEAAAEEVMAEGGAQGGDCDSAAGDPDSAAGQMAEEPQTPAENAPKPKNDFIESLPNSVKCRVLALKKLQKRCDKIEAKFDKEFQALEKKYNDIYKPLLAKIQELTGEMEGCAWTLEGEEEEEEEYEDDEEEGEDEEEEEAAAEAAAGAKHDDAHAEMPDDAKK
# UniProt Q6PIU2: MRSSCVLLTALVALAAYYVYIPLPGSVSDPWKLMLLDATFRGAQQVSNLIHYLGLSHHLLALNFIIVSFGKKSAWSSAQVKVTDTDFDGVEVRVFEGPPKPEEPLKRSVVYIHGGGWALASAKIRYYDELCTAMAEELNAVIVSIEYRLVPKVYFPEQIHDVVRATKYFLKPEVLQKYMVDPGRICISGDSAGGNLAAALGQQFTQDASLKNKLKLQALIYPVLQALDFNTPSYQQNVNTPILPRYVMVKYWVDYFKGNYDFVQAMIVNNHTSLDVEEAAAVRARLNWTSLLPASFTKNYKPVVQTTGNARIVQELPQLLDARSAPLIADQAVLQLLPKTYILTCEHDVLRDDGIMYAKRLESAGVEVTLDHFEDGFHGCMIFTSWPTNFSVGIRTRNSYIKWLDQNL
# UniProt Q9BTX1: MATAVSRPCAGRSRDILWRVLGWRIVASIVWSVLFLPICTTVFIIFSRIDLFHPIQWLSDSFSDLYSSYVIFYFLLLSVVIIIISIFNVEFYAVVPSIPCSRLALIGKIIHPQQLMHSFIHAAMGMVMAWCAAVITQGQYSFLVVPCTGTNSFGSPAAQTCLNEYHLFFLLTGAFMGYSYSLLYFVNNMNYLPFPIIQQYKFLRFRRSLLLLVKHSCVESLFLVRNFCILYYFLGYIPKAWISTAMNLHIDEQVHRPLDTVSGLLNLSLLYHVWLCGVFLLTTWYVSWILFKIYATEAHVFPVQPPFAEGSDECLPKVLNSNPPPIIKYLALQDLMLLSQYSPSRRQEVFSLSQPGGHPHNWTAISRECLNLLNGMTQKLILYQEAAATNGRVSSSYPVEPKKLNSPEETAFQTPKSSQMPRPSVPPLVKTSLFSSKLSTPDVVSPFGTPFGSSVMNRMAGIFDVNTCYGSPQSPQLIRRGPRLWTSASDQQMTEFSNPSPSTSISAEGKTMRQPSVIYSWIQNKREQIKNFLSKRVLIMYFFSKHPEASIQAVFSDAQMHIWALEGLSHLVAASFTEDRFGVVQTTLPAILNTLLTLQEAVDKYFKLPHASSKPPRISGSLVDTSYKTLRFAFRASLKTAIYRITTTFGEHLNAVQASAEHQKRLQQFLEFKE
# UniProt O43676, whole entry, looked up: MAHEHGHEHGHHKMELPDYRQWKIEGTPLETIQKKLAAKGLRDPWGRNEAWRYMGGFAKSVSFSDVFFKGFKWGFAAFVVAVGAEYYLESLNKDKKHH
# UniProt Q330K2: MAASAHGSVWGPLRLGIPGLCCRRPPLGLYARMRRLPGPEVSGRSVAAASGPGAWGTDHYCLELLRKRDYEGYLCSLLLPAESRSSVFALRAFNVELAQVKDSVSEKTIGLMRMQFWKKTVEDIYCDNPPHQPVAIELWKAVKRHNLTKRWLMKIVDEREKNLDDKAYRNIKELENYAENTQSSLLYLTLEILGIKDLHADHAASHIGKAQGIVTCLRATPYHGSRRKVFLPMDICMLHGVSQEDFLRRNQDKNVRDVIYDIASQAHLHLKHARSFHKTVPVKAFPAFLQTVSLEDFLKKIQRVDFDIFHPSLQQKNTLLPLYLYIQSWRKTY
# UniProt Q16795, whole entry, looked up: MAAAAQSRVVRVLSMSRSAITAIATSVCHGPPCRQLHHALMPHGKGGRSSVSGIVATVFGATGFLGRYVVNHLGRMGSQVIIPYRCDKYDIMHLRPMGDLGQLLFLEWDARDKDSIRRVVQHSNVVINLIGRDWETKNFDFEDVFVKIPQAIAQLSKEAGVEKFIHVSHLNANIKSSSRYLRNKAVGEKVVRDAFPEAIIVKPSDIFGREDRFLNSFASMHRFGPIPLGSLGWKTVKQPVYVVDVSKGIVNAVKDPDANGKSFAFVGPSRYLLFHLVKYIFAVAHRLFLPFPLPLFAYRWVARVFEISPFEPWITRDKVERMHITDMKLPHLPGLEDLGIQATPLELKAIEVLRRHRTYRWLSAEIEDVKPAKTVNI
# UniProt Q8NI08: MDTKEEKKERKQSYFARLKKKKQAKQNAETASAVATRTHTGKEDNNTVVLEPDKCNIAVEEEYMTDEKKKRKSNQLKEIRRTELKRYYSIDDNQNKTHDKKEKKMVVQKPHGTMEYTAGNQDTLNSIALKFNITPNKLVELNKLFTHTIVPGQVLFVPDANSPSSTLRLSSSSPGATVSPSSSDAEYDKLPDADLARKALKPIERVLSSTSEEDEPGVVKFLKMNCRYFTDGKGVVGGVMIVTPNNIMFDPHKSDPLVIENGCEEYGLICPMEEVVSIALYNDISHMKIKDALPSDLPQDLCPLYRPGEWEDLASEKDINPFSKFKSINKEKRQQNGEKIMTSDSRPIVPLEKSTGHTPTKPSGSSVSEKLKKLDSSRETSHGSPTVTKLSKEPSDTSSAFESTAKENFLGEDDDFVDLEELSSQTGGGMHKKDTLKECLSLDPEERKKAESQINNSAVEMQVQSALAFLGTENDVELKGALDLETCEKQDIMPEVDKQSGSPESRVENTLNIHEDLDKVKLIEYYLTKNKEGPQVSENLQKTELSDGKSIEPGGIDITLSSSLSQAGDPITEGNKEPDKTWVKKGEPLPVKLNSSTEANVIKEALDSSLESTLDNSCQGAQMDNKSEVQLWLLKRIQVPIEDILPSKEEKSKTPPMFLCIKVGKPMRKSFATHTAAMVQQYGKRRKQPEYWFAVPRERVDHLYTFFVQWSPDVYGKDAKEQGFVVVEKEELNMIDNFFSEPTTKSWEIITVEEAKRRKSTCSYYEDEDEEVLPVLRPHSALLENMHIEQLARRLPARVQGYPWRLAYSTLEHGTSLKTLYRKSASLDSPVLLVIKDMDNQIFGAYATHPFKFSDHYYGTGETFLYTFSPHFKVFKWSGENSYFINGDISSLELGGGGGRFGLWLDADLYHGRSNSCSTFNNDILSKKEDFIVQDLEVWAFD
# UniProt O43674, whole entry, looked up: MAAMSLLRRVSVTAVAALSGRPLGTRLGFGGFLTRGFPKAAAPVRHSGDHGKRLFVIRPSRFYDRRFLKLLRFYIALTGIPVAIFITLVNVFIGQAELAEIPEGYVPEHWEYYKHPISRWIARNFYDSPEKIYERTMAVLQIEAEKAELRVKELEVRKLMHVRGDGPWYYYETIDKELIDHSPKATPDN
# UniProt O75376, whole entry, looked up: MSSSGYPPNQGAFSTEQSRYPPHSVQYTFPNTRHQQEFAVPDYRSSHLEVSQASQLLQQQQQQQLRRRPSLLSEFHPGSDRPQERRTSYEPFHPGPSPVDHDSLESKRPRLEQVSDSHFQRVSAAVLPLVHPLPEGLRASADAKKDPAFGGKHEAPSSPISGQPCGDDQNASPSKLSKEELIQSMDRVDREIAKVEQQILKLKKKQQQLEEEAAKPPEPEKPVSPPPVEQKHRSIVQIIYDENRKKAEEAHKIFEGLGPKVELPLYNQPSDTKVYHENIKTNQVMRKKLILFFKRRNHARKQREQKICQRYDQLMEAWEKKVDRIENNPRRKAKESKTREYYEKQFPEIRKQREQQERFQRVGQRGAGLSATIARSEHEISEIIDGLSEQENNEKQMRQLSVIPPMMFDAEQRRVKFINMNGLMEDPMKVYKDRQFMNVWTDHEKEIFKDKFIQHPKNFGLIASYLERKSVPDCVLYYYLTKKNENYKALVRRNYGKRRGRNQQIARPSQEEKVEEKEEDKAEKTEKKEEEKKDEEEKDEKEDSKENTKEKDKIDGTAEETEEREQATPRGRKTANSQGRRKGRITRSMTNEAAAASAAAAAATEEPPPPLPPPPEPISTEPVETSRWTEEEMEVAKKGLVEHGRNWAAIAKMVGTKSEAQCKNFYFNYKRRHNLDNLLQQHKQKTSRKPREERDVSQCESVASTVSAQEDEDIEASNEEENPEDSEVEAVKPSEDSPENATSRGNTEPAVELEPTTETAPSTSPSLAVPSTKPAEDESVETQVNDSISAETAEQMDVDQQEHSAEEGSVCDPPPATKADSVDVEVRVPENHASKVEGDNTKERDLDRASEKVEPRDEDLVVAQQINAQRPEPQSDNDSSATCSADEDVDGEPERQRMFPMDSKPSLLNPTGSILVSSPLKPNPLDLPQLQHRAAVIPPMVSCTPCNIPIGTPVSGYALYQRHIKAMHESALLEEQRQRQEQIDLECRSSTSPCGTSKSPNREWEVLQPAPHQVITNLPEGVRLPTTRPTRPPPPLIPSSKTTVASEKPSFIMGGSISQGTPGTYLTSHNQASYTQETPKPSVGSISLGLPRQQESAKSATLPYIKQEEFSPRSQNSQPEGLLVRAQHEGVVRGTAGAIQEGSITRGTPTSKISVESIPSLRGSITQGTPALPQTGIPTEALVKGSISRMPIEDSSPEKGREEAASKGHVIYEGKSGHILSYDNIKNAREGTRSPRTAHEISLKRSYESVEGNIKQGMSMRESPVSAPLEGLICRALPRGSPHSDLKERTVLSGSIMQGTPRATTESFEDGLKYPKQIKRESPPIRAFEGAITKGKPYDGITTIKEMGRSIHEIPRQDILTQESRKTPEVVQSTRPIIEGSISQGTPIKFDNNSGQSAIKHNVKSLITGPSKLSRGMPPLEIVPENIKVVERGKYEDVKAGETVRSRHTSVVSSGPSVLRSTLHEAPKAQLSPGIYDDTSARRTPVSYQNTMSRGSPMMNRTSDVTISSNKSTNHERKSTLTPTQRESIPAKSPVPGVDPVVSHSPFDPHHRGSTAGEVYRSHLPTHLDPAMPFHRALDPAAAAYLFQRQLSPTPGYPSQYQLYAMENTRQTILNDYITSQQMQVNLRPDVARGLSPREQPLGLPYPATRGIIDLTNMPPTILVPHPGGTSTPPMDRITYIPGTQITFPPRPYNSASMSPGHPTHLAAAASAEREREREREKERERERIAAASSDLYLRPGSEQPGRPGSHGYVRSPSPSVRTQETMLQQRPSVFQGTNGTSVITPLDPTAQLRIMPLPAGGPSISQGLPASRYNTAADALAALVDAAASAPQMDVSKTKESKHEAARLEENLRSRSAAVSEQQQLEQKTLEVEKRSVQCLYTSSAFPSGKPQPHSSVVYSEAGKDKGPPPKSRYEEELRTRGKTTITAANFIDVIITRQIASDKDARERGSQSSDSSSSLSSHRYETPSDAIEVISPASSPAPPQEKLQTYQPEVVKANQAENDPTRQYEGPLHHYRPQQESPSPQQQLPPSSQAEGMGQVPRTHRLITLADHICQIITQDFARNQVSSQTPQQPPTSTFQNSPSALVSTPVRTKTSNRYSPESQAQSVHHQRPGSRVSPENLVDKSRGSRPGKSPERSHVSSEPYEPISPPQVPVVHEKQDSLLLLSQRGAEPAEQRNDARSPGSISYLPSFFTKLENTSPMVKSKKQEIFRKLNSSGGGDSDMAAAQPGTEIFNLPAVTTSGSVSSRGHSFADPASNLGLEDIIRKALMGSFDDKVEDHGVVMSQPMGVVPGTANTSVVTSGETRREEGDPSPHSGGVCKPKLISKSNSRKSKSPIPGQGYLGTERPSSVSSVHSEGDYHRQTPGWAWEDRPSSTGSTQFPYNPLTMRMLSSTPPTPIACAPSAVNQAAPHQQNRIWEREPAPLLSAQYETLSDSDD
# UniProt Q7L592: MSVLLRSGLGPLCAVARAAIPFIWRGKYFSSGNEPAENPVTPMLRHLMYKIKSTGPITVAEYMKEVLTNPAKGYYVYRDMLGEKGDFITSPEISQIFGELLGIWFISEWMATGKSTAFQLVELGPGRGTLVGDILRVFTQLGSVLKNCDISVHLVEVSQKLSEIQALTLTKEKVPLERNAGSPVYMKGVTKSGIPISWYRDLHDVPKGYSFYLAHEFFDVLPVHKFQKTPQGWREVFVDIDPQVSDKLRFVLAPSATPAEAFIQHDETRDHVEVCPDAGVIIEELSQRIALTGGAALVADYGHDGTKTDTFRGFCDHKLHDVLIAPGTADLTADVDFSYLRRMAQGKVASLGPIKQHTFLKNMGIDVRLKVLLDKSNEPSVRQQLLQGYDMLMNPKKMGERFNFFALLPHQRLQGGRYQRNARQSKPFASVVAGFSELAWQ
# This is one part of the list.
# Experiments:
# Assay in all cases: log2 fold change, soluble protein after heating vs DMSO (PISA); higher = thermal stabilisation; K562 cells, 10 uM, 30 min; active = over 0.2 and 3.5 SD of the protein, either way, in both replicates (recomputed)
# [1] = compound: CC1=C(C=C(C=C1)NC(=O)C2=CC(=CC=C2)C(C)(C)C#N)NC3=CC4=C(C=C3)N=CN(C4=O)C
# Outline: (§1)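 Soluble protein was quantified by TMTpro 16plex LC-MS/MS after channel sums were equalised. It was obtained as the supernatant after 21,000xg for 90 min from pooled aliquots of K562 cells (2×10^6 cells/mL, 10 μM compound, 30 min) heated for 3 min across 48°C-58°C and extracted in PBS with 0.5% NP-40 at 4°C. Thermal stability values are relative to control samples and come from duplicates. They are given as log2 fold changes.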
# [2] = compound: CC1=C(C=C(C=C1)NC(=O)C2=CC(=CC=C2)N(C)C)NC(=O)C3=CC=C(C=C3)O
# Outline: as §1
# [3] = compound: CC1=CC=C(C=C1)SC2=C3C=C(SC3=CN=C2)C(=O)N
# Outline: as §1
# [4] = compound: CC1=NC(=CC=C1)C2=C(N=C(N2)C(C)(C)C)C3=CC4=NC=CN=C4C=C3
# Outline: as §1
# Nexturastat A = compound: CCCCN(Cc1ccc(C(=O)NO)cc1)C(=O)Nc1ccccc1 [Nexturastat A]
# Outline: as §1
# vemurafenib = compound: CCCS(=O)(=O)Nc1ccc(F)c(C(=O)c2c[nH]c3ncc(-c4ccc(Cl)cc4)cc23)c1F [vemurafenib]
# Outline: as §1
# [5] = compound: CCCS(=O)(=O)Nc1ccc(F)c(C(=O)c2c[nH]c3ncc(Cl)cc23)c1F
# Outline: as §1
# [6] = compound: CCCc1cc(C)[nH]c(=O)c1CNC(=O)c1cc(-c2ccnc(N3CCN(C)CC3)c2)cc2c1cnn2C(C)C
# Outline: as §1
# givinostat = compound: CCN(CC)Cc1ccc2cc(COC(=O)Nc3ccc(C(=O)NO)cc3)ccc2c1 [givinostat]
# Outline: as §1
# barasertib = compound: CCN(CCCOc1ccc2c(Nc3cc(CC(=O)Nc4cccc(F)c4)[nH]n3)ncnc2c1)CCOP(=O)(O)O [barasertib]
# Outline: as §1
# [7] = compound: CC[C@@H]1C(=O)N(C)c2cnc(Nc3ccc(C(=O)NC4CCN(C)CC4)cc3OC)nc2N1C1CCCC1
# Outline: as §1
# volasertib = compound: CC[C@@H]1C(=O)N(C)c2cnc(Nc3ccc(C(=O)N[C@H]4CC[C@H](N5CCN(CC6CC6)CC5)CC4)cc3OC)nc2N1C(C)C [volasertib]
# Outline: as §1
# [8] = compound: CC[C@H](C)N1C=C(C2=C(C=C(C=C21)C3=CN=C(C=C3)N4CCNCC4)C(=O)NCC5=C(C=C(NC5=O)C)C)C
# Outline: as §1
# epoxomicin = compound: CC[C@H](C)[C@@H](C(=O)N[C@@H]([C@@H](C)O)C(=O)N[C@@H](CC(C)C)C(=O)[C@]1(CO1)C)NC(=O)[C@H]([C@@H](C)CC)N(C)C(=O)C [epoxomicin]
# Outline: as §1
# [9] = compound: CCn1c(C(=O)N(C2CC2)C2CC2)cc2c3c(ncn3C)c(Nc3cc(C)n(C)n3)nc21
# Outline: as §1
# [10] = compound: CCn1cc(-c2ccnc3[nH]c(-c4cccc(CN(C)C)c4)cc23)c(-c2ccc(NC(=O)N(C)C)cc2)n1
# Outline: as §1
# [11] = compound: CN(C)CC(=O)Nc1ccc2[nH]c(=O)c3ccccc3c2c1
# Outline: as §1
# rosiglitazone = compound: CN(CCOC1=CC=C(C=C1)C[C@H]2C(=O)NC(=O)S2)C3=CC=CC=N3 (racemic) [rosiglitazone]
# Outline: as §1
# [12] = compound: CN1C2=C(C3=C1C(=O)N(N=C3)CC4=CC(=CC=C4)N)SC(=C2)S(=O)C
# Outline: as §1
# [13] = compound: CN1CCC(CNc2ccc3ncc(-c4cccc(OC(F)(F)F)c4)n3n2)CC1
# Outline: as §1
Target,log2 fold change [1],log2 fold change [2],log2 fold change [3],log2 fold change [4],log2 fold change (Nexturastat A),log2 fold change (vemurafenib),log2 fold change [5],log2 fold change [6],log2 fold change (givinostat),log2 fold change (barasertib),log2 fold change [7],log2 fold change (volasertib),log2 fold change [8],log2 fold change (epoxomicin),log2 fold change [9],log2 fold change [10],log2 fold change [11],log2 fold change (rosiglitazone),log2 fold change [12],log2 fold change [13]
NAE1 (UniProt Q13564),inactive: -0.019,inactive: -0.043,inactive: 0.008,inactive: -0.061,inactive: 0.025,inactive: 0.03,inactive: 0.063,inactive: -0.033,inactive: 0.003,inactive: 0.047,inactive: -0.051,inactive: -0.074,inactive: 0.029,inactive: 0.036,inactive: -0.022,inactive: -0.094,inactive: 0.02,inactive: 0.042,inactive: -0.048,inactive: -0.124
NDOR1 isoform 2 (UniProt Q9UHB4),inactive: -0.032,inactive: 0.037,inactive: -0.018,inactive: 0.017,inactive: -0.077,inactive: -0.023,inactive: 0.094,inactive: -0.059,inactive: 0.032,inactive: 0.021,inactive: -0.03,inactive: -0.055,inactive: 0.019,inactive: 0.12,inactive: -0.063,inactive: -0.103,inactive: -0.032,inactive: 0.014,inactive: -0.005,inactive: 0.046
NAGLU (UniProt P54802),inactive: 0.024,inactive: 0.015,inactive: 0.031,inactive: 0.019,inactive: 0.024,inactive: -0.038,inactive: 0.047,inactive: -0.022,inactive: 0.018,inactive: -0.038,inactive: 0.046,inactive: -0.059,inactive: -0.03,inactive: -0.165,inactive: 0.003,inactive: 0.027,inactive: -0.035,inactive: 0.055,inactive: 0.051,inactive: -0.124
NAP1L5 (UniProt Q96NT1),inactive: -0.05,inactive: 0.062,inactive: 0.062,inactive: 0.081,inactive: -0.006,inactive: 0.099,inactive: -0.043,inactive: -0.027,inactive: 0.017,inactive: 0.044,inactive: 0.033,inactive: 0.056,inactive: 0.005,inactive: 0.109,inactive: -0.011,inactive: 0.034,inactive: -0.027,inactive: 0.017,inactive: 0.003,inactive: 0.101
NCEH1 isoform 2 (UniProt Q6PIU2),inactive: 0.002,inactive: 0.052,inactive: -0.043,inactive: 0.01,inactive: -0.086,inactive: 0.008,inactive: -0.093,inactive: -0.004,inactive: -0.058,inactive: 0,inactive: 0.097,inactive: 0.045,inactive: -0.028,inactive: -0.045,inactive: 0.039,inactive: 0.042,inactive: 0.031,inactive: 0.004,inactive: -0.073,inactive: 0.055
"NA, A0A096LPI6",inactive: -0.018,inactive: 0.032,inactive: 0.051,inactive: 0.039,inactive: -0.093,inactive: 0.008,inactive: 0.052,inactive: -0.033,inactive: -0.055,inactive: -0.003,inactive: 0.023,inactive: 0.044,inactive: -0.056,inactive: -0.017,–,inactive: 0.029,inactive: -0.002,–,inactive: -0.03,inactive: 0.016
NDC1 (UniProt Q9BTX1),inactive: -0.035,inactive: -0.017,inactive: 0.011,inactive: -0.002,inactive: -0.005,inactive: 0.009,inactive: 0.058,inactive: -0.04,inactive: 0.014,inactive: 0.028,inactive: -0.017,inactive: -0.142,inactive: 0.028,inactive: 0.025,inactive: -0.038,inactive: -0.054,inactive: 0.004,inactive: 0.031,inactive: -0.087,inactive: -0.045
NDUFB3 (UniProt O43676),inactive: 0.015,inactive: -0.023,inactive: -0.043,inactive: 0.006,inactive: -0.095,inactive: 0,inactive: -0.03,inactive: -0.093,inactive: -0.014,inactive: -0.039,inactive: 0.049,inactive: 0.057,inactive: -0.004,inactive: -0.028,inactive: 0.043,inactive: 0.041,inactive: -0.016,inactive: -0.001,inactive: -0.007,inactive: 0.007
NDUFAF6 (UniProt Q330K2),inactive: 0.055,inactive: 0.068,inactive: 0.169,inactive: 0.024,inactive: -0.052,inactive: -0.055,inactive: 0.035,inactive: -0.088,inactive: -0.063,inactive: -0.01,inactive: -0.27,inactive: -0.027,inactive: -0.028,inactive: 0.055,–,inactive: -0.059,inactive: -0.078,–,inactive: -0.014,active: -0.721
NDUFA9 (UniProt Q16795),inactive: 0.023,inactive: -0.036,inactive: 0.019,inactive: 0.04,inactive: -0.095,inactive: 0.009,inactive: 0.039,inactive: -0.044,inactive: 0.041,inactive: 0.026,inactive: -0.082,active: -0.26,inactive: 0.073,inactive: 0.03,–,inactive: -0.053,inactive: 0.035,–,inactive: -0.017,active: -0.367
NCOA7 (UniProt Q8NI08),inactive: 0.068,inactive: -0.045,inactive: 0.015,inactive: 0.016,inactive: 0.012,inactive: 0.008,inactive: -0.005,inactive: 0.024,inactive: 0.045,inactive: 0.009,inactive: -0.035,active: -0.287,inactive: 0.124,inactive: 0.021,–,inactive: -0.004,inactive: -0.002,–,inactive: -0.009,inactive: -0.265
NDUFB5 (UniProt O43674),inactive: -0.011,inactive: 0.032,inactive: 0.022,inactive: 0.036,inactive: -0.039,inactive: 0.04,inactive: 0.092,inactive: -0.016,inactive: -0.072,inactive: 0.029,inactive: -0.059,inactive: -0.013,inactive: -0.039,inactive: 0.008,inactive: -0.028,inactive: 0.026,inactive: 0.025,inactive: -0.037,inactive: -0.003,inactive: -0.123
NDUFB10 (UniProt O96000),inactive: -0.093,inactive: -0.008,inactive: 0.001,inactive: 0.05,inactive: -0.002,inactive: -0.019,inactive: 0,inactive: -0.126,inactive: -0.023,inactive: 0.02,inactive: -0.008,inactive: 0.056,inactive: -0.007,inactive: 0.001,–,inactive: 0.03,inactive: -0.005,–,inactive: -0.043,active: -0.237
NCOR1 (UniProt O75376),inactive: -0.035,inactive: -0.075,inactive: -0.195,inactive: 0.101,inactive: -0.079,inactive: 0.01,inactive: -0.149,inactive: -0.079,inactive: 0.014,inactive: -0.094,inactive: -0.034,inactive: -0.021,inactive: 0.142,inactive: 0.07,–,inactive: 0.046,inactive: 0.048,–,inactive: 0.033,inactive: -0.045
NDUFAF7 (UniProt Q7L592),inactive: 0.085,inactive: 0,inactive: 0.018,inactive: 0.015,inactive: -0.084,inactive: 0.052,inactive: -0.016,inactive: 0.081,inactive: 0.132,inactive: 0.046,inactive: -0.008,inactive: 0.121,inactive: -0.014,inactive: 0.043,inactive: -0.084,inactive: 0.079,inactive: 0.025,inactive: 0.075,–,inactive: -0.251

# 2 entries from above, bar-delimited.
Target | log2 fold change [1] | log2 fold change [2] | log2 fold change [3] | log2 fold change [4] | log2 fold change (Nexturastat A) | log2 fold change (vemurafenib) | log2 fold change [5] | log2 fold change [6] | log2 fold change (givinostat) | log2 fold change (barasertib) | log2 fold change [7] | log2 fold change (volasertib) | log2 fold change [8] | log2 fold change (epoxomicin) | log2 fold change [9] | log2 fold change [10] | log2 fold change [11] | log2 fold change (rosiglitazone) | log2 fold change [12] | log2 fold change [13]
NA, A0A096LPI6 | inactive: -0.018 | inactive: 0.032 | inactive: 0.051 | inactive: 0.039 | inactive: -0.093 | inactive: 0.008 | inactive: 0.052 | inactive: -0.033 | inactive: -0.055 | inactive: -0.003 | inactive: 0.023 | inactive: 0.044 | inactive: -0.056 | inactive: -0.017 | – | inactive: 0.029 | inactive: -0.002 | – | inactive: -0.03 | inactive: 0.016
NDC1 (UniProt Q9BTX1) | inactive: -0.035 | inactive: -0.017 | inactive: 0.011 | inactive: -0.002 | inactive: -0.005 | inactive: 0.009 | inactive: 0.058 | inactive: -0.04 | inactive: 0.014 | inactive: 0.028 | inactive: -0.017 | inactive: -0.142 | inactive: 0.028 | inactive: 0.025 | inactive: -0.038 | inactive: -0.054 | inactive: 0.004 | inactive: 0.031 | inactive: -0.087 | inactive: -0.045
